Assay results published in patent US20030113325A1 (CHILDREN S MEDICAL CENTER, published 2003).
These are yes or no findings as the source states them, for the method shown. For some assays here: In cells and extracts the contact can be indirect. Some results given as binding are weak or reduced against the parent protein; the word gives no strength. For some assays here: Sequences can lack the tags named with a protein. One block for each molecule: values may come before it.

Sequences of proteins named here, by UniProt entry; tags and fusion partners are left off. A change or cut given only in a name is not applied to a line headed by its entry.
UniProt P05187: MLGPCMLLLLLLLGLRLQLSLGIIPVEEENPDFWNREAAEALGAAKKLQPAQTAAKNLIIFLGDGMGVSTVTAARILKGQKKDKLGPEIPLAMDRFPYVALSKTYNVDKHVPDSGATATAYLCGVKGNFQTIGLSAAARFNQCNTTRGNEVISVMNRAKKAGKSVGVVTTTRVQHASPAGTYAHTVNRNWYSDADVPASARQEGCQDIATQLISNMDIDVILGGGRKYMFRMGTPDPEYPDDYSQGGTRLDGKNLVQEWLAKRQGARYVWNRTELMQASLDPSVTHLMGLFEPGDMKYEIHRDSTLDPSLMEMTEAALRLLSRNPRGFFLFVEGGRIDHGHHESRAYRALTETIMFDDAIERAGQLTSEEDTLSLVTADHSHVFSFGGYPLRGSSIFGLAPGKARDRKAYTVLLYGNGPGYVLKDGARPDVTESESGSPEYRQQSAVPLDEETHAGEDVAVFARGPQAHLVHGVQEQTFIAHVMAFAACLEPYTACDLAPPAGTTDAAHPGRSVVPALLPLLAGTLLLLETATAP

Legend:
[1] = biological target: T1, Nogo-66 receptor (NgR), full-length, expressed on transfected cells (human) (UniProt Q9BZR6); assay: AP fusion protein in conditioned medium on NgR-expressing CHO cells
T1 sequence (looked up): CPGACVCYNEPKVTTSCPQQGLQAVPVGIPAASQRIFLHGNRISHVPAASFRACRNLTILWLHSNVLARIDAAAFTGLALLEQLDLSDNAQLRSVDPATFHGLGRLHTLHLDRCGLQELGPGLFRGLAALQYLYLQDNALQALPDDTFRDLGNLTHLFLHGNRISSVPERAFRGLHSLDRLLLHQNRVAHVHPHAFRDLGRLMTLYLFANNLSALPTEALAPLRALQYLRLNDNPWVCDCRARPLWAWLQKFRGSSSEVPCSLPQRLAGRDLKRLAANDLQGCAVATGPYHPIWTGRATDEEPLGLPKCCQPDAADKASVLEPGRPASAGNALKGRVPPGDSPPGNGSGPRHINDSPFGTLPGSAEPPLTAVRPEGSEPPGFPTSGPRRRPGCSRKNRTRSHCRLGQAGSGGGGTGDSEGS

[2] = biological target: T2, AP-OMgp fusion protein (mouse) (UniProt Q63912); assay: coimmunoprecipitation
T2 sequence (looked up): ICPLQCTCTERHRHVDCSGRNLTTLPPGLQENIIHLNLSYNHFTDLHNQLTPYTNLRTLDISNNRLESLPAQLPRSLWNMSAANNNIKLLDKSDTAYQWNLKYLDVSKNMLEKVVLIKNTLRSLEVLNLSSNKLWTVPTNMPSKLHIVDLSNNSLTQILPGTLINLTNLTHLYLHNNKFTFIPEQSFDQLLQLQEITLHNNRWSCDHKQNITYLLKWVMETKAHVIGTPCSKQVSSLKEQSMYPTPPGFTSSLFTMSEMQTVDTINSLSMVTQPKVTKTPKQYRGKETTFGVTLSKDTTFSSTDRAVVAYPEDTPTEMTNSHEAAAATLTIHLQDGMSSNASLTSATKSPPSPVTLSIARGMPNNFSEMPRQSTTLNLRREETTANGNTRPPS

- binding [1]: binds
Molecule: AP-OMgp-LRR (from UniProt P05187 23-511; Q63912 25-228) (ligand)

- binding [2]: binds
B1: GST-NgR fusion protein containing the entire extracellular domain of NgR (receptor, UniProt Q9BZR6 27-447, looked up)
chain: T1 sequence (looked up)
notes: extracellular domain; not shown: glutathione S-transferase (GST) fusion partner
